Measured values reported in the supplement of paper PMC11637464.
Where a name gives a salt, the structure may show the parent alone. The list shows a part of the results. Many values rest on one well or one pass, so single values are uncertain.

What was measured:
[1] = system: primary mouse Muller glia with Ascl1 overexpression; assay: total cells recovered per well; higher = more cells recovered
[2] = system: primary mouse Muller glia with Ascl1 overexpression; assay: Neuronal cell count fold change vs Ascl1-only control (log2 fold change); higher = more neurogenesis
[3] = system: primary mouse Muller glia with Ascl1 overexpression; assay: progenitor-like (ProL) cell count fold change vs Ascl1-only control (log2 fold change); higher = more progenitor-like cells

COc1cc2nc(N3CCCN(C)CC3)nc(NC3CCN(Cc4ccccc4)CC3)c2cc1OC (collection day: 2)
total cells recovered per well ([1]; 0.1 µM): 85
total cells recovered per well ([1]; 1 µM): 61
Neuronal cell count fold change ([2]; 0.1 µM): 0
Neuronal cell count fold change ([2]; 1 µM): 0.107

Nc1ncn([C@H]2C[C@H](O)[C@@H](CO)O2)c(=O)n1 [Decitabine] (collection day: 1)
total cells recovered per well ([1]; 0.1 µM): 68
total cells recovered per well ([1]; 1 µM): 71
total cells recovered per well ([1]; 10 µM): 85

O=C(Nc1cccc2cccnc12)c1ccc(N2C(=O)[C@@H]3[C@H](C2=O)[C@@H]2C=C[C@H]3C2)cc1 [endo-IWR 1] (collection day: 2)
total cells recovered per well ([1]; 10 µM): 96
Neuronal cell count fold change ([2]; 10 µM): -0.379
progenitor-like (log2) ([3]; 10 µM): 0.391

CC(ONC(=O)c1cc(C(F)(F)F)cc(C(F)(F)F)c1)C(=O)Nc1ccc(Cl)cc1 (stereo not drawn) (collection day: 2)
total cells recovered per well ([1]; 0.1 µM): 69
total cells recovered per well ([1]; 1 µM): 115

C=C[C@@]1(C)CC(=O)[C@]2(O)[C@@]3(C)[C@@H](O)CCC(C)(C)[C@@H]3[C@H](O)[C@H](OC(C)=O)[C@@]2(C)O1 [Forskolin] (collection day: 1)
total cells recovered per well ([1]; 0.1 µM): 58
total cells recovered per well ([1]; 1 µM): 58
total cells recovered per well ([1]; 10 µM): 45
Neuronal cell count fold change ([2]; 0.1 µM): -0.12
Neuronal cell count fold change ([2]; 1 µM): -0.252
Neuronal cell count fold change ([2]; 10 µM): -0.184
progenitor-like (log2) ([3]; 0.1 µM): 0.447
progenitor-like (log2) ([3]; 1 µM): 0
progenitor-like (log2) ([3]; 10 µM): 0.447

CC(C)(C)c1ccc(S(=O)(=O)NCc2ccc(C(=O)Nc3cccnc3)cc2)cc1 (collection day: 2)
total cells recovered per well ([1]; 0.1 µM): 117
total cells recovered per well ([1]; 1 µM): 80
progenitor-like (log2) ([3]; 0.1 µM): 0.152
progenitor-like (log2) ([3]; 1 µM): 0.462

CN(C)CCOc1cc(-c2cn[nH]c2)ccc1NC(=O)C1COc2ccccc2O1 (stereo not drawn) [SR 3677 dihydrochloride] (collection day: 2)
total cells recovered per well ([1]; 0.1 µM): 62
total cells recovered per well ([1]; 10 µM): 62

CNCCC(Oc1ccc(C(F)(F)F)cc1)c1ccccc1 (stereo not drawn) [Fluoxetine hydrochloride] (collection day: 1)
total cells recovered per well ([1]; 0.1 µM): 52
total cells recovered per well ([1]; 1 µM): 90
Neuronal cell count fold change ([2]; 0.1 µM): -0.474
Neuronal cell count fold change ([2]; 1 µM): -0.644
progenitor-like (log2) ([3]; 0.1 µM): 0.67
progenitor-like (log2) ([3]; 1 µM): 0.295

CC1(C)CCC(C)(C)c2cc(C(=O)Nc3ccc(C(=O)O)cc3)ccc21 (collection day: 1)
total cells recovered per well ([1]; 0.1 µM): 79
total cells recovered per well ([1]; 1 µM): 66

O=C(O)c1ccc(S(=O)(=O)NC2CCCCC2)cc1 (collection day: 2)
total cells recovered per well ([1]; 0.1 µM): 109
total cells recovered per well ([1]; 1 µM): 130
total cells recovered per well ([1]; 10 µM): 133
Neuronal cell count fold change ([2]; 0.1 µM): 0.107
Neuronal cell count fold change ([2]; 1 µM): -0.241
Neuronal cell count fold change ([2]; 10 µM): -0.379

CCc1ccc(CCOc2ccc(CC3SC(=O)NC3=O)cc2)nc1 (stereo not drawn) [Pioglitazone hydrochloride] (collection day: 2)
total cells recovered per well ([1]; 0.1 µM): 68
total cells recovered per well ([1]; 1 µM): 103
total cells recovered per well ([1]; 10 µM): 87

c1ccc2c(-c3cnn4cc(-c5ccc(N6CCNCC6)cc5)cnc34)ccnc2c1 (collection day: 2)
total cells recovered per well ([1]; 0.1 µM): 76

NC(=O)c1ccc(-c2nc(-c3ccccn3)c(-c3ccc4c(c3)OCO4)[nH]2)cc1 (collection day: 1)
total cells recovered per well ([1]; 0.1 µM): 59
total cells recovered per well ([1]; 1 µM): 65
total cells recovered per well ([1]; 10 µM): 64

COc1cccc(Oc2cccc3nc(Nc4ccc(C(C)C)cc4)nc(N)c23)c1 (collection day: 2)
total cells recovered per well ([1]; 0.1 µM): 49
total cells recovered per well ([1]; 1 µM): 93
Neuronal cell count fold change ([2]; 0.1 µM): -0.115
Neuronal cell count fold change ([2]; 1 µM): 0.206

COC(=O)C1=C(C)NC(C)=C([N+](=O)[O-])C1c1ccccc1C(F)(F)F (stereo not drawn) (collection day: 1)
total cells recovered per well ([1]; 0.1 µM): 58
total cells recovered per well ([1]; 1 µM): 50
total cells recovered per well ([1]; 10 µM): 46
Neuronal cell count fold change ([2]; 0.1 µM): -0.252
Neuronal cell count fold change ([2]; 1 µM): -0.644
Neuronal cell count fold change ([2]; 10 µM): -0.837

O=C1NC(=O)c2c1c(-c1ccccc1)cc1[nH]c3ccc(O)cc3c21 (collection day: 1)
total cells recovered per well ([1]; 0.1 µM): 68

CC(NC(=O)C(OC(=O)C(C)NC(=O)OC(C)(C)C)C(C)C)C(=O)OC(C(=O)O)C(C)C (stereo not drawn) (collection day: 2)
total cells recovered per well ([1]; 0.1 µM): 62
total cells recovered per well ([1]; 1 µM): 64
total cells recovered per well ([1]; 10 µM): 95
progenitor-like (log2) ([3]; 0.1 µM): 0.236
progenitor-like (log2) ([3]; 1 µM): 0.123
progenitor-like (log2) ([3]; 10 µM): 0.0931

c1cc(-c2cnn3cc(-c4ccc(OCCN5CCCCC5)cc4)cnc23)ccn1 [Dorsomorphin dihydrochloride] (collection day: 1)
total cells recovered per well ([1]; 0.1 µM): 76
total cells recovered per well ([1]; 1 µM): 81
Neuronal cell count fold change ([2]; 0.1 µM): -0.556
Neuronal cell count fold change ([2]; 1 µM): 0

CCCC(=O)Nc1ncnc2c1ncn2[C@@H]1O[C@@H]2COP(=O)(O)O[C@H]2[C@H]1OC(=O)CCC [Dibutyryl-cAMP, sodium salt] (collection day: 1)
total cells recovered per well ([1]; 0.1 µM): 74
total cells recovered per well ([1]; 10 µM): 48

CCCC(CCC)C(=O)O [Valproic acid, sodium salt] (collection day: 1)
total cells recovered per well ([1]; 0.1 µM): 124
total cells recovered per well ([1]; 1 µM): 104
total cells recovered per well ([1]; 10 µM): 89
progenitor-like (log2) ([3]; 0.1 µM): 0.541
progenitor-like (log2) ([3]; 1 µM): 0.184
progenitor-like (log2) ([3]; 10 µM): 0.541

CCCC[S+]([O-])c1sc2nc(-c3cccs3)cc(-c3ccccc3)c2c1N (stereo not drawn) (collection day: 2)
total cells recovered per well ([1]; 1 µM): 120
total cells recovered per well ([1]; 10 µM): 62
progenitor-like (log2) ([3]; 1 µM): -0.134
progenitor-like (log2) ([3]; 10 µM): -0.206

Cc1cccc(-c2[nH]ncc2-c2ccc3ncccc3n2)n1 (collection day: 2)
progenitor-like (log2) ([3]; 0.1 µM): -0.0995
progenitor-like (log2) ([3]; 1 µM): 0.316
progenitor-like (log2) ([3]; 10 µM): -0.0656

O=C(NNc1ccccc1)c1ccncc1 [PluriSln 1] (collection day: 2)
progenitor-like (log2) ([3]; 0.1 µM): 0.366
progenitor-like (log2) ([3]; 1 µM): 0.152
progenitor-like (log2) ([3]; 10 µM): 0.236

Cc1ccccc1N=Nc1ccc(NC(=O)c2ccnn2C)c(C)c1 (collection day: 2)
Neuronal cell count fold change ([2]; 0.1 µM): 0
Neuronal cell count fold change ([2]; 1 µM): 0.3
progenitor-like (log2) ([3]; 0.1 µM): 0
progenitor-like (log2) ([3]; 1 µM): -0.0324

O=C(NO)c1ccc2[nH]c(=O)c(CCCc3ccccc3)nc2c1 (collection day: 2)
progenitor-like (log2) ([3]; 0.1 µM): -0.134
progenitor-like (log2) ([3]; 1 µM): 0.29
progenitor-like (log2) ([3]; 10 µM): -0.737

OCCNC1CCCc2c1[nH]c1ccc(-c3ccccc3)cc21 (stereo not drawn) (collection day: 2)
progenitor-like (log2) ([3]; 0.1 µM): 0.123
progenitor-like (log2) ([3]; 1 µM): 0

COc1cc2c(cc1-c1c(C)noc1C)ncc1[nH]c(=O)n([C@H](C)c3ccccn3)c12 [I-BET 151 dihydrochloride] (collection day: 2)
Neuronal cell count fold change ([2]; 0.1 µM): -1.12
Neuronal cell count fold change ([2]; 1 µM): -3.7
Neuronal cell count fold change ([2]; 10 µM): -2.12
progenitor-like (log2) ([3]; 0.1 µM): 0.462
progenitor-like (log2) ([3]; 1 µM): 0.316
progenitor-like (log2) ([3]; 10 µM): -0.585

Cc1ccc(-c2cn3c4c(sc3n2)CCCC4)cc1 [Cyclic Pifithrin-alpha hydrobromide] (collection day: 2)
Neuronal cell count fold change ([2]; 0.1 µM): -0.531

O=c1n(CCCN2CCN(c3cccc(Cl)c3)CC2)nc2ccccn12 [Trazodone hydrochloride] (collection day: 2)
Neuronal cell count fold change ([2]; 0.1 µM): 0.107
Neuronal cell count fold change ([2]; 1 µM): 0
Neuronal cell count fold change ([2]; 10 µM): 0.206

O=c1[nH]c(=O)n([C@H]2C[C@H](O)[C@@H](CO)O2)cc1Br (collection day: 2)
Neuronal cell count fold change ([2]; 0.1 µM): -0.7
Neuronal cell count fold change ([2]; 1 µM): -0.531
Neuronal cell count fold change ([2]; 10 µM): -1.12
progenitor-like (log2) ([3]; 0.1 µM): 0.341
progenitor-like (log2) ([3]; 1 µM): 0.29
progenitor-like (log2) ([3]; 10 µM): -0.244

CCN(CC)CCCCNc1ncc2cc(-c3cc(OC)cc(OC)c3)c(NC(=O)NC(C)(C)C)nc2n1 (collection day: 1)
Neuronal cell count fold change ([2]; 0.1 µM): -0.474
Neuronal cell count fold change ([2]; 1 µM): -0.474

C[C@@H](N)[C@H]1CC[C@H](C(=O)Nc2ccncc2)CC1 (collection day: 1)
total cells recovered per well ([1]; 0.1 µM): 59
Neuronal cell count fold change ([2]; 0.1 µM): -0.644

CN(C)c1ccccc1CN1CCCN(Cc2ccccc2N(C)C)C1c1ccncc1 (collection day: 1)
Neuronal cell count fold change ([2]; 0.1 µM): -0.396
Neuronal cell count fold change ([2]; 10 µM): 0.164
progenitor-like (log2) ([3]; 0.1 µM): 0.495
progenitor-like (log2) ([3]; 10 µM): 0.184

Cc1c(C)c2c(c(C)c1O)CCC(C)(COc1ccc(CC3SC(=O)NC3=O)cc1)O2 (stereo not drawn) [Troglitazone] (collection day: 1)
progenitor-like (log2) ([3]; 0.1 µM): 0

CC(C)N(CCCNC(=O)Nc1ccc(C(C)(C)C)cc1)C[C@H]1O[C@@H](n2ccc3c(N)ncnc32)[C@H](O)[C@@H]1O (collection day: 2)
progenitor-like (log2) ([3]; 1 µM): -0.684
progenitor-like (log2) ([3]; 10 µM): -0.0656

C[S+]([O-])c1ccc(-c2nc(-c3ccc(F)cc3)c(-c3ccncc3)[nH]2)cc1 (stereo not drawn) (collection day: 1)
Neuronal cell count fold change ([2]; 0.1 µM): 0.0566
Neuronal cell count fold change ([2]; 1 µM): -1.18
Neuronal cell count fold change ([2]; 10 µM): -1.64

Cc1nn(-c2ccccc2)c(C)c1C=NN1CCN(Cc2ccccc2)CC1 (collection day: 1)
Neuronal cell count fold change ([2]; 0.1 µM): -0.252
Neuronal cell count fold change ([2]; 1 µM): -0.12
Neuronal cell count fold change ([2]; 10 µM): -0.474

CCCCC(CC)CNC(=N)NC(=N)NCCCCCCNC(=N)NC(=N)NCC(CC)CCCC (stereo not drawn) [Alexidine dihydrochloride] (collection day: 2)
total cells recovered per well ([1]; 0.1 µM): 94
Neuronal cell count fold change ([2]; 0.1 µM): -1.7

O=C1Cc2c([nH]c3ccc(Br)cc23)-c2ccccc2N1 [Kenpaullone] (collection day: 1)
Neuronal cell count fold change ([2]; 0.1 µM): -0.0589
Neuronal cell count fold change ([2]; 1 µM): -0.184
progenitor-like (log2) ([3]; 0.1 µM): 0.348
progenitor-like (log2) ([3]; 1 µM): 0.495

CCn1c(=O)[nH]c2ccccc21 (collection day: 1)
progenitor-like (log2) ([3]; 0.1 µM): 0.399
progenitor-like (log2) ([3]; 1 µM): 0.541
progenitor-like (log2) ([3]; 10 µM): 0.295

C=CCNc1ncnc2ccc(Br)cc12 (collection day: 2)
Neuronal cell count fold change ([2]; 0.1 µM): -0.531
Neuronal cell count fold change ([2]; 1 µM): 0.3
Neuronal cell count fold change ([2]; 10 µM): -0.893
progenitor-like (log2) ([3]; 0.1 µM): -0.0656
progenitor-like (log2) ([3]; 1 µM): -0.134
progenitor-like (log2) ([3]; 10 µM): 0.508

COc1ccn2ncc(-c3nc4[nH]nc(NC(=O)c5ccc(F)cc5)c4cc3F)c2c1 (collection day: 2)
Neuronal cell count fold change ([2]; 0.1 µM): -0.241
Neuronal cell count fold change ([2]; 1 µM): -1.12
Neuronal cell count fold change ([2]; 10 µM): -1.7

O=C(O)c1ccc2cc(-c3ccc(O)c(C45CC6CC(CC(C6)C4)C5)c3)ccc2c1 (collection day: 1)
progenitor-like (log2) ([3]; 0.1 µM): 0.495
